Reference: publication doi:10.1101/2024.10.13.618066
No constants are given. Whether binding was seen depends on the method and setting. In cells and extracts the contact can be indirect. A yes stands for co-enrichment or nearness to the bait. Other partners may have been found.

Chains of the proteins cited; added tags and fusions are not shown.
UniProt A6NHR9: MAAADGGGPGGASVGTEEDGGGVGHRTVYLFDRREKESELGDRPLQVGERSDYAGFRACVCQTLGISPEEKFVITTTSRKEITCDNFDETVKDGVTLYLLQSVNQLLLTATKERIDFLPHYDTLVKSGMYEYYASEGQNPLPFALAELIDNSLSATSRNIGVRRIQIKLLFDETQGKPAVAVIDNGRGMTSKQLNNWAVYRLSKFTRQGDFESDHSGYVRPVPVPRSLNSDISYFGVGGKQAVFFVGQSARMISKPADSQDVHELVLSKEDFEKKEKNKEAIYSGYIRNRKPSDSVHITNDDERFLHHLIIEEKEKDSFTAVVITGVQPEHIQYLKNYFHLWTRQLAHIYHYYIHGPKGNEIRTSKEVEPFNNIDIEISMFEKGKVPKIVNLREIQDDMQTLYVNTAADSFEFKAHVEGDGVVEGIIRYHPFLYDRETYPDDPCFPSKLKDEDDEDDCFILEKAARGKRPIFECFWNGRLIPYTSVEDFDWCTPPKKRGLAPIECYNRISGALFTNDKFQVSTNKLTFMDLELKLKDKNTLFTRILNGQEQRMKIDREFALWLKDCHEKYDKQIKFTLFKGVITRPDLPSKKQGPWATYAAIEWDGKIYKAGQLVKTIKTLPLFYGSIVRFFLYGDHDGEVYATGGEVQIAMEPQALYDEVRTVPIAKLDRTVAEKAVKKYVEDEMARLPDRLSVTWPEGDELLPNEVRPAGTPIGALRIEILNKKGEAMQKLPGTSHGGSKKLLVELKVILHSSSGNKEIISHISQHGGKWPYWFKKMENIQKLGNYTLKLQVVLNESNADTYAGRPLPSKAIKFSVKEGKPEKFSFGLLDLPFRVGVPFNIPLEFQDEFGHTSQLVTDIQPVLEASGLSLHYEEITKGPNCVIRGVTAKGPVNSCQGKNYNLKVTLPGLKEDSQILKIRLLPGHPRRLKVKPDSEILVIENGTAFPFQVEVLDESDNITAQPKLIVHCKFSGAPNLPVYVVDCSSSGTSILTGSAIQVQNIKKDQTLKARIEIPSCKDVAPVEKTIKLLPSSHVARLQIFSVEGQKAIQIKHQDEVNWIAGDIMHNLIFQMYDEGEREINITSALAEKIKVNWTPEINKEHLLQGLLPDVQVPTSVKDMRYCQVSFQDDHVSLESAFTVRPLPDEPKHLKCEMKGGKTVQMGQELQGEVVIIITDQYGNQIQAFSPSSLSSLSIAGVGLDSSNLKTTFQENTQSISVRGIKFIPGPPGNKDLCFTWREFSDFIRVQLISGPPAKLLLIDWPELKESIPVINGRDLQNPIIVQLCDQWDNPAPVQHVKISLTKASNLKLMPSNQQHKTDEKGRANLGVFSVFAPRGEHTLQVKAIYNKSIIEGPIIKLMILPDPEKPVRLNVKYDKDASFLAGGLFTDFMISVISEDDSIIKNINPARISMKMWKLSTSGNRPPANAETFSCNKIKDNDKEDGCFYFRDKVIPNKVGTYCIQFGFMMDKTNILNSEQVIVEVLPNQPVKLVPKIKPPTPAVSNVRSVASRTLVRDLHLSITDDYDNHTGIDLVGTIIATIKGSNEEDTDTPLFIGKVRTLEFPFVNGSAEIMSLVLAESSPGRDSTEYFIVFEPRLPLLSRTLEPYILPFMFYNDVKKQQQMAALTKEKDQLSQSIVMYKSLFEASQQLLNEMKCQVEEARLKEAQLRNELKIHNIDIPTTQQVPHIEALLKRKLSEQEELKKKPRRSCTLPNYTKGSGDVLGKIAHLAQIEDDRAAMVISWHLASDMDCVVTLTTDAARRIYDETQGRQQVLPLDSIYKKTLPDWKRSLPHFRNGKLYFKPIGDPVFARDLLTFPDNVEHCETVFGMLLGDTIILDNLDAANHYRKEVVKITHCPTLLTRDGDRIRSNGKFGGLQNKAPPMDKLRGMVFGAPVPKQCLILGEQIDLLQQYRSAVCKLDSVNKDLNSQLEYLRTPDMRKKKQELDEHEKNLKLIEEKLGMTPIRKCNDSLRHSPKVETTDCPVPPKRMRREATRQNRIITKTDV
UniProt Q9Y265: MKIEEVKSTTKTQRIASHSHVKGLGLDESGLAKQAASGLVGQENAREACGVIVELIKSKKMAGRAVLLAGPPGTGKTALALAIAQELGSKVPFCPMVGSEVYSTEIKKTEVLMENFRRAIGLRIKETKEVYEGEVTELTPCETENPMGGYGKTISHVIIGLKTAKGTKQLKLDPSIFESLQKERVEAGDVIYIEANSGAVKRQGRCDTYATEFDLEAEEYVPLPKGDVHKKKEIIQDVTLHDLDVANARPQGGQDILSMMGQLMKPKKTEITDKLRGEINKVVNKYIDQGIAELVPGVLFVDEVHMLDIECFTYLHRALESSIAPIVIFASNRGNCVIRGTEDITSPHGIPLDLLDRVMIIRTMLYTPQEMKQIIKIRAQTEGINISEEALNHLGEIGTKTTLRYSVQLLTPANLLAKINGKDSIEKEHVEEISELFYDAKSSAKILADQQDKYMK
UniProt Q13263: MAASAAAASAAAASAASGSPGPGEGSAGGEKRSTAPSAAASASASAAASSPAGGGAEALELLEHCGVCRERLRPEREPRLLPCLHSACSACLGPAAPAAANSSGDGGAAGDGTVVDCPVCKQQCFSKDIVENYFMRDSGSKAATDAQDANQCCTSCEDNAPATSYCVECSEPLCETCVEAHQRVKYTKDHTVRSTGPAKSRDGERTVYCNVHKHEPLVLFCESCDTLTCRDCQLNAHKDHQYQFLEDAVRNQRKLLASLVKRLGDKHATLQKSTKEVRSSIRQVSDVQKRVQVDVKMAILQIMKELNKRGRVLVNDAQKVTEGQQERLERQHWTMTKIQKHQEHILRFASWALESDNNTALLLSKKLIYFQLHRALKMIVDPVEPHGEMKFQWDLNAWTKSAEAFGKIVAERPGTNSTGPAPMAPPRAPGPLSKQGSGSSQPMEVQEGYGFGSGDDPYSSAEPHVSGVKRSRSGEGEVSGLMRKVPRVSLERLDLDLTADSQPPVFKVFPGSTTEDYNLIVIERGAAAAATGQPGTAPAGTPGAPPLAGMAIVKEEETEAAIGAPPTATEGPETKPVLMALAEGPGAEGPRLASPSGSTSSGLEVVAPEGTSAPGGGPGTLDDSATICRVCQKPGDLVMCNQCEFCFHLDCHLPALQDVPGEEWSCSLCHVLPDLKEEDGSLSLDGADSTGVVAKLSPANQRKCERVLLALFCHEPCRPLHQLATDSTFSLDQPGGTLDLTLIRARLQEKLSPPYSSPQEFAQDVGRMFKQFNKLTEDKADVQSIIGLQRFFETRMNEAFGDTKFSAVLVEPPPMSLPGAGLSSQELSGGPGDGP

Target: GFP-SMCHD1 (wild type) (human) (UniProt A6NHR9)
Assay: affinity purification with mass spectrometry

Question: How did the binding turn out when “HNRNPK (endogenous, HEK293T, HeLa and U2OS cells) (from UniProt P61978 1-463)” was run?
Answer: Its binding is “binds”.

Question: “RUVBL1 (endogenous) (from UniProt Q9Y265 1-456)” was tested. Which binding did it give?
Answer: Its binding is “binds”.

Question: How did the binding turn out when “TRIM28 (endogenous, HEK293T, HeLa and U2OS cells) (from UniProt Q13263 1-835)” was run?
Answer: The binding was “binds”.

B1: LRIF1 (endogenous) (protein, UniProt Q5T3J3 1-769)
chain: MSNNLRRVFLKPAEENSGNASRCVSGCMYQVVQTIGSDGKNLLQLLPIPKSSGNLIPLVQSSVMSDALKGNTGKPVQVTFQTQISSSSTSASVQLPIFQPASSSNYFLTRTVDTSEKGRVTSVGTGNFSSSVSKVQSHGVKIDGLTMQTFAVPPSTQKDSSFIVVNTQSLPVTVKSPVLPSGHHLQIPAHAEVKSVPASSLPPSVQQKILATATTSTSGMVEASQMPTVIYVSPVNTVKNVVTKNFQNIYPKPVTEIAKPVILNTTQIPKNVATETQLKGGQHSQAAPVKWIFQDNLQPFTPSLVPVKSSNNVASKILKTFVDRKNLGDNTINMPPLSTIDPSGTRSKNMPIKDNALVMFNGKVYLLAKKGTDVLPSQIDQQNSVSPDTPVRKDTLQTVSSSPVTEISREVVNIVLAKSKSSQMETKSLSNTQLASMANLRAEKNKVEKPSPSTTNPHMNQSSNYLKQSKTLFTNPIFPVGFSTGHNAPRKVTAVIYARKGSVLQSIEKISSSVDATTVTSQQCVFRDQEPKIHNEMASTSDKGAQGRNDKKDSQGRSNKALHLKSDAEFKKIFGLTKDLRVCLTRIPDHLTSGEGFDSFSSLVKSGTYKETEFMVKEGERKQQNFDKKRKAKTNKKMDHIKKRKTENAYNAIINGEANVTGSQLLSSILPTSDVSQHNILTSHSKTRQEKRTEMEYYTHEKQEKGTLNSNAAYEQSHFFNKNYTEDIFPVTPPELEETIRDEKIRRLKQVLREKEAALEEMRKKMHQK
Question: For B1, which binding is on record?
Answer: Its binding is “binds”.
